PubChem BioAssay AID504786 – Drosophila RNAi Screening Center – 2011
The screen tested about 21,000 reagents; below is an unselected part of those that have a named target and a result. 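Primary screen; positive scores mean lost reporter signal, so the sign may be inverted from the usual convention.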 A plus sign joins genes that one reagent is predicted to hit. Further read-outs or replicates are left out here.

Aim: 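Knock-downs reducing HIF reporter induction by the iron chelator DFO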 (primary screen)
System: Drosophila S2 cells with a stable HIF luciferase reporter
Knock-down reagent: long dsRNA against Drosophila genes, about 0.2 µg dsRNA per well of a 384-well plate
Duration: three days of knock-down, then 20 h of DFO before reading
Challenge: desferrioxamine (DFO) at 100 µM, an iron chelator that mimics hypoxia, for 20 h
Detection: 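HIF reporter luminescence in cells given 100 µM DFO for 20 h, using the mouse ldh-a hypoxia-response element, scored as per-plate z-scores; higher means greater loss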
Direction: z-score: higher = stronger loss of HIF reporter signal

| gene | amplicon | z-score, replicate 1 | z-score, replicate 2 | z-score, replicate 3 |
| --- | --- | --- | --- | --- |
| goe (GeneID 32660) | DRSC19345 | -0.4 | -1 | – |
| Rfx (GeneID 41266) | DRSC16820 | 0.4 | 0.8 | – |
| CG11617 (GeneID 33183) | DRSC00321 | -0.3 | -0.3 | – |
| CaBP1 (GeneID 34976) | DRSC01984 | -0.3 | -0.4 | – |
| Cby (GeneID 42574) | DRSC14591 | 0.3 | -0.4 | – |
| Aplip1 (GeneID 53472) | DRSC07947 | -0.2 | 0.3 | – |
| Aplip1 (GeneID 53472) | DRSC08697 | -0.3 | -0.3 | – |
| dmGlut (GeneID 47253) | DRSC02835 | -0.1 | 0.1 | – |
| ken (GeneID 37785) | DRSC04696 | 3 | 5.8 | – |
| Fsn (GeneID 36460) | DRSC06875 | -0.2 | 0 | – |
| pdm2 (GeneID 34673) | DRSC02496 | -0.3 | 0.2 | – |
| pdm2 (GeneID 34673) | DRSC02497 | -0.3 | 1.6 | – |
| pdm2 (GeneID 34673) | DRSC03587 | -0.3 | 0.4 | – |
| CG17803 (GeneID 42141) | DRSC15275 | -0.5 | -0.8 | -0.3 |
| CG14380 (GeneID 41621) | DRSC14840 | -0.2 | -0.4 | – |
| CG14929 + CG4970 + CG14930 | DRSC02412 | -0.3 | -0.2 | – |
| stx (GeneID 32005) | DRSC18442 | 1.8 | 0.4 | – |
| stx (GeneID 32005) | DRSC18443 | -0.2 | 0.1 | – |
| CG8773 (GeneID 41634) | DRSC16444 | 0.2 | 0.2 | – |
| Rh7 (GeneID 39389) | DRSC10529 | -0.3 | -0.3 | – |
| Hsp70Bb + Hsp70Ba + Hsp70Bc + 1 more | DRSC21247 | 2.3 | 1.5 | – |
| Hsp70Bb + Hsp70Ba + Hsp70Bc + 1 more | DRSC21248 | 2.7 | 1.7 | – |

5 entries already listed, sorted by “z-score, replicate 1”, high to low:
| gene | amplicon | z-score, replicate 1 | z-score, replicate 2 | z-score, replicate 3 |
| --- | --- | --- | --- | --- |
| ken (GeneID 37785) | DRSC04696 | 3 | 5.8 | – |
| dmGlut (GeneID 47253) | DRSC02835 | -0.1 | 0.1 | – |
| Fsn (GeneID 36460) | DRSC06875 | -0.2 | 0 | – |
| pdm2 (GeneID 34673) | DRSC02496 | -0.3 | 0.2 | – |
| pdm2 (GeneID 34673) | DRSC02497 | -0.3 | 1.6 | – |

Next entries follow.
| gene | amplicon | z-score, replicate 1 | z-score, replicate 2 | z-score, replicate 3 |
| --- | --- | --- | --- | --- |
| CG5783 (GeneID 35088) | DRSC02894 | -0.3 | 0 | – |
| vimar (GeneID 35609) | DRSC05026 | -0.3 | -0.1 | – |
| Jhbp4 (GeneID 41948) | DRSC14222 | 0 | -0.1 | – |
| shop (GeneID 32878) | DRSC20030 | -0.3 | -0.6 | – |
| CG33702 (GeneID 3771932) | DRSC08986 | -0.3 | 0 | – |
| nord (GeneID 37882) | DRSC04210 | -0.2 | -0.2 | – |
| nord (GeneID 37882) | DRSC04361 | 0.3 | 0.3 | – |
| CG14645 (GeneID 50160) | DRSC12231 | -0.3 | -0.6 | – |
| S6KL (GeneID 45970) | DRSC19349 | -0.2 | -0.6 | – |
| UGP (GeneID 39065) | DRSC10411 | -0.1 | -0.2 | – |
| CG32269 + CG32270 | DRSC08195 | -0.3 | -0.4 | – |
| CG15530 (GeneID 43589) | DRSC15067 | -0.3 | -0.2 | – |
